The list shows a part of the results.

Sequences of proteins named here, by UniProt entry; tags and fusion partners are left off.
UniProt Q0JBA9, entry or part of it: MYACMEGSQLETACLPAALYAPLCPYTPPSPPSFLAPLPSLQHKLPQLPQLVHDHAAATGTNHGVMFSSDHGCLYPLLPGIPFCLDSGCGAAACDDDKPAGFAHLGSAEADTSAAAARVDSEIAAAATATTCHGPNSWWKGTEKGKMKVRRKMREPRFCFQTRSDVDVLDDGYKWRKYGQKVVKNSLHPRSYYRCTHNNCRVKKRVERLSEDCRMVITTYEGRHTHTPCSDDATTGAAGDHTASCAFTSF

The assay addresses OsWRKY34 (Oryza sativa, UniProt Q0JBA9 1-250). The assay is described as follows: protein-binding microarray (RPBM); PBS, 2% BSA, 51.3 ng/ul salmon testes DNA, 50 uM zinc acetate, 200 nM TF, 25 C, 1 h; high values mean tight binding. To be noted: protein: recombinant; tags: N-terminal polyhistidine and DsRed monomer fusion (pET32a); label: CyDye5-dUTP incorporated in the synthesized complementary strand; 3' TTTTT single-stranded linker to array surface; dsDNA, one strand shown. Summed up: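 Ni–NTA purification followed expression in E. coli BL21-CodonPlus of transcription factors fused N-terminally to a polyhistidine tag and DsRed. At 200 nM in PBS with 2% BSA, salmon testes DNA and 50 µM zinc acetate, the protein was incubated for 1 h at 25 °C with a custom Agilent array that had been primer-extended with Cy5-dUTP and blocked with 2% BSA. After washing, the array was read on an Axon 4000B scanner. The binding signal is per-feature fluorescence intensity in arbitrary units.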
Take “ATCACTAGCTCTCTGTTGCATCATCATTAAGTCATGGTGACGGAGTCACCTAGTGCAG”: the binding signal is 8060 fluorescence intensity (a.u.).

As for “ACCCCGCCGGCCTCCTCGTCCTCGCCGTCGCCGCGCGCGTCGGAGTCACCTAGTGCAG”, the binding signal is 14100 fluorescence intensity (a.u.). In the case of “GGTAGTAGTTTGGTATTATGGGATGGATAAAATAACCACCCGGAGTCACCTAGTGCAG”, the binding signal is 8540 fluorescence intensity (a.u.).

Turning to “AAGTTGCTTATTTTCTTTGGTTGGTGTCTTTGTGTCGTCTCGGAGTCACCTAGTGCAG”, the binding signal is 8400 fluorescence intensity (a.u.). Next, “CCACCTCCCCTCCTTCGCGCGTCGTCCGCCAACTGCAAAACGGAGTCACCTAGTGCAG”: 8180 fluorescence intensity (a.u.). Next, “TTTTGTACCGGCGTCTGTTCTTTTGTTTTGCTTTTGCTGTCGGAGTCACCTAGTGCAG”: 10700 fluorescence intensity (a.u.); “CTTTCTTATACCTGACTGCATTTTTTTCCCTTCATTCTTTCGGAGTCACCTAGTGCAG”: 10600 fluorescence intensity (a.u.); “GTGGTTGATTCATTCGATATTGTTTTCACTTTCCTCTTCACGGAGTCACCTAGTGCAG”: 9920 fluorescence intensity (a.u.). Next, “CTTTCTCTCTTCATACTCAACTTTTTCATATATTTTTTTCCGGAGTCACCTAGTGCAG”: 10400 fluorescence intensity (a.u.). “CCGTTACATTGTTCCAATTTTAATTAAACTTCCAATTTTACGGAGTCACCTAGTGCAG”: the binding signal was 8470 fluorescence intensity (a.u.). Next, “GGATGCTCTTGTGTTCTTGTTGTTGATTTGTATTGTGGATCGGAGTCACCTAGTGCAG”: 8240 fluorescence intensity (a.u.).

For “CGGCGGCGGCGACCGCGGGTAGGGTGGGTGGCGCGGGCCGCGGAGTCACCTAGTGCAG”, the binding signal was 9330 fluorescence intensity (a.u.).

As for “AGGGAGGAGGAGAGAGGCTGTGTCGGGTTTGTGTTGTGTTCGGAGTCACCTAGTGCAG”, the binding signal is 10500 fluorescence intensity (a.u.). In the case of “AGCCGCACATCATCTCGCTAACGTCATCCTTTGTGCCGAACGGAGTCACCTAGTGCAG” it was 9390 fluorescence intensity (a.u.); in that of “CGCATTTCTTCCTGTGTTAAGAACTTGTCACATTACTAACCGGAGTCACCTAGTGCAG”, 9170 fluorescence intensity (a.u.). In the case of “TGGGTGGGAGCTGGTGCTGTGGGCGAAATCCTAGCTCGATCGGAGTCACCTAGTGCAG” it was 9220 fluorescence intensity (a.u.).

With “CTACTGCCTCTACTTGTGCACTCACAGACAGCTTCATTAGCGGAGTCACCTAGTGCAG”, the binding signal is 8240 fluorescence intensity (a.u.). Next, “CTCTGTTTTACACTACCGACCATTTCTATTTCTGGCCCTTCGGAGTCACCTAGTGCAG”: 9460 fluorescence intensity (a.u.).

Turning to “CTTGCATCCGCGCGCGCTTCTCCGCCTACCGCCGGCCTCCCGGAGTCACCTAGTGCAG”, the binding signal was 10100 fluorescence intensity (a.u.). In the case of “CTAAATGTTTGACACCGTTGACTTTTTTAAATATGTTTGACGGAGTCACCTAGTGCAG” it was 23300 fluorescence intensity (a.u.).

On to “ATATATACTTTGGTCAAATTATCACAAAACTACATATTTACGGAGTCACCTAGTGCAG”, for which the binding signal was 8250 fluorescence intensity (a.u.). In the case of “GGCAAAAGAATTTCCACACCTATGATAGCCTTGTTTTGTTCGGAGTCACCTAGTGCAG” it was 8110 fluorescence intensity (a.u.). Regarding “AAAACGTATCTTGTCTTTATCACTTTATCGTGAGTTTTTTCGGAGTCACCTAGTGCAG”, the binding signal is 12700 fluorescence intensity (a.u.). Next, “TTTTTGTCTTTGCCATCTTGTTCTGTTTGGTTTTCACATGCGGAGTCACCTAGTGCAG”: 8810 fluorescence intensity (a.u.); “ATACCCTCACGTATACGGTTGGTTCCCTTATACGCCGTTACGGAGTCACCTAGTGCAG”: 8870 fluorescence intensity (a.u.); “ACTAGTTCATAATGTCGGGACACTAATGTTGTATTCGGTTCGGAGTCACCTAGTGCAG”: 8230 fluorescence intensity (a.u.). Next, “GACGCCACCGCCGCCCCACCGCCACCGCCATCGATTCTTGCGGAGTCACCTAGTGCAG”: 8830 fluorescence intensity (a.u.); “ATCATCCAACCAACAGCTGAAGCCTAAACACACAACCGAACGGAGTCACCTAGTGCAG”: 8600 fluorescence intensity (a.u.); “TTTTCACGTTGCAATATATTCTTTCCGTCCAACAATATAACGGAGTCACCTAGTGCAG”: 9320 fluorescence intensity (a.u.).

Consider “CTCTTTTTTTTTCGATTTGTTTGTGTGCATTTCGGCATTTCGGAGTCACCTAGTGCAG”, for which the binding signal was 8640 fluorescence intensity (a.u.). In the case of “CGCTTTCTATTCGGGCTTTGGCCTGCTAGTTTTATGGGCCCGGAGTCACCTAGTGCAG” it was 10800 fluorescence intensity (a.u.); in that of “AGCTCATGACCAGCGCGCACCGCCTTGTCAGCCTGTGTTTCGGAGTCACCTAGTGCAG”, 10100 fluorescence intensity (a.u.); in that of “ATTTTTGGTTCAAGTTTTTTGCAGGGACTAGTTTCGAAATCGGAGTCACCTAGTGCAG”, 8040 fluorescence intensity (a.u.).

Turning to “GTGGGTGGTTCTTGCTAGCACGCGCGGCGCGAGCGCCAAGCGGAGTCACCTAGTGCAG”, the binding signal was 9300 fluorescence intensity (a.u.). Next, “TTTCTTTGTTGTCTCACTTTCCCTTTTTCCACTTCTTTTTCGGAGTCACCTAGTGCAG”: 11700 fluorescence intensity (a.u.). Next, “GACCCTGACACTTCACTCTTGTGTTGACCAAACGGCTGATCGGAGTCACCTAGTGCAG”: 10500 fluorescence intensity (a.u.); “ATCTCGCACACCATTCCCATGCTCGAGCGAGTTCATCACACGGAGTCACCTAGTGCAG”: 10100 fluorescence intensity (a.u.).

Consider “CAGCACCAACACGAGCCCAACTCGACGCCTCTCTTCTCTTCGGAGTCACCTAGTGCAG”, for which the binding signal is 9620 fluorescence intensity (a.u.). In the case of “CCTTGTGTGGAATAGTAATGCTCGGTTGACTACGCCAGTCCGGAGTCACCTAGTGCAG” it was 8940 fluorescence intensity (a.u.). In the case of “TTGAAAACCTGGCTACGCCACTGCGGTGAACATCTACCATCGGAGTCACCTAGTGCAG” it was 8070 fluorescence intensity (a.u.); in that of “CAACTGCTCTTCCTACGCGCGGTCATCGTCTGCTTCTTGTCGGAGTCACCTAGTGCAG”, 10000 fluorescence intensity (a.u.). In the case of “CTGTCACTTATCCTTGGCTTTCCTTGTGCGCCTGAGTATCCGGAGTCACCTAGTGCAG” it was 8960 fluorescence intensity (a.u.); in that of “GGATTTTCTCGCGCATACCATATCACACTACCACCCTTCTCGGAGTCACCTAGTGCAG”, 11400 fluorescence intensity (a.u.).

With “TCTGCCACTTTCCGCATGCTGTATCCACGTCACCTCCAATCGGAGTCACCTAGTGCAG”, the binding signal is 10600 fluorescence intensity (a.u.).

Regarding “TTTCAACCTTTGTACTTCCTTTCCTGTAGGTATCTCCATGCGGAGTCACCTAGTGCAG”, the binding signal is 8060 fluorescence intensity (a.u.). Next, “TATCTATAGCTCTCTGATCCATTGCCTCGTTTTTCTCTATCGGAGTCACCTAGTGCAG”: 12100 fluorescence intensity (a.u.); “CCCGCAGGCGGCGTCCACCACCACCACCACCTCGATCCGCCGGAGTCACCTAGTGCAG”: 8030 fluorescence intensity (a.u.); “GCTCTTGATCATCACGCCATCTCCTCCGGCCGAACTCACACGGAGTCACCTAGTGCAG”: 11000 fluorescence intensity (a.u.). Next, “TGGGGTTGGTTTGGTTTGGAGTACATCGAGATTCGAGAGACGGAGTCACCTAGTGCAG”: 19900 fluorescence intensity (a.u.). Next, “TTGCTCAATGCTTGTTCATTGTTTATGCCATTGTCTTCTCCGGAGTCACCTAGTGCAG”: 11300 fluorescence intensity (a.u.); “TGATCAAACTTAAAACAGTTTGACTTTGACTAAAGTCAAACGGAGTCACCTAGTGCAG”: 8260 fluorescence intensity (a.u.). As to “GGGTCGTCGTCATCGCCGTCTTCACTCTTCACGCCACACTCGGAGTCACCTAGTGCAG”, the binding signal is 10400 fluorescence intensity (a.u.). For the sequence “TTGAGCCGGTTACTTCTTTCTCGTTTGCCTGTTGATACAACGGAGTCACCTAGTGCAG”, the binding signal is 9990 fluorescence intensity (a.u.). In the case of “CCTCTTCTTCTGCTCTGCTCTACTCGCGAAGCCAAAGCCTCGGAGTCACCTAGTGCAG” it was 9400 fluorescence intensity (a.u.).

These data come from PMC7819943, “Rice protein-binding microarrays: a tool to detect cis-acting elements near promoter regions in rice”.
